Data reported in PMC11980659.
Results are given in words; binding and its absence hold for the method and conditions named. In cells and extracts the contact can be indirect. Some binding calls cover weakened binding; strength is not graded here.

Protein sequences, listed by entry. Tags and fused reporters are not part of them.
UniProt P35222: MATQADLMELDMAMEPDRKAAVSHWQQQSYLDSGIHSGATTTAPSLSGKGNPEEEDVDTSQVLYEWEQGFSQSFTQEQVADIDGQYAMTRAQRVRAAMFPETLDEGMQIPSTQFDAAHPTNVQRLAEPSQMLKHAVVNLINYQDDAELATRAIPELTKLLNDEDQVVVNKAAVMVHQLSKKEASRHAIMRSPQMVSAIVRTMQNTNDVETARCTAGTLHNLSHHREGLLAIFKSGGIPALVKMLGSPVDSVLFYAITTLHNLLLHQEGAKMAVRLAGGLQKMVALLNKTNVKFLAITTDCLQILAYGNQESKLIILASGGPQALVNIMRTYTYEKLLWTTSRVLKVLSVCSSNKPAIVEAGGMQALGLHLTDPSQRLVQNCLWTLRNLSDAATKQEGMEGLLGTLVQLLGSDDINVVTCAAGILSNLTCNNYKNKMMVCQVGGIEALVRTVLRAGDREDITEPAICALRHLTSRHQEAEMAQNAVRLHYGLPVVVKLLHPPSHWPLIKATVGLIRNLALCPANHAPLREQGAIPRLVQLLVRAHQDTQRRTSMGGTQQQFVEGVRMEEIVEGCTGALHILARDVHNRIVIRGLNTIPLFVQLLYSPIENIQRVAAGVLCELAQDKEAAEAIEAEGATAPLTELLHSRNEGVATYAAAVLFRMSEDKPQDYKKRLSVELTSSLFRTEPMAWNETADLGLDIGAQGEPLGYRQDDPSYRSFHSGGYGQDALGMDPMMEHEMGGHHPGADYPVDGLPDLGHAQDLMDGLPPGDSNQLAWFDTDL
UniProt P23528: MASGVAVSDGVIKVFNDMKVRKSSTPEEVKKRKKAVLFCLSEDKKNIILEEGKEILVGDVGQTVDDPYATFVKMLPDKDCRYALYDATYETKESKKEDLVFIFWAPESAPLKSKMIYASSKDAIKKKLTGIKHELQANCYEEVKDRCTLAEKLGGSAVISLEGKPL

Target: FLAG-β-catenin (UniProt P35222)
Experiment: co-IP; exogenously expressed proteins in HEK293T cells; HA-CFL1 (WT or mutant) co-expressed with FLAG-β-catenin, immunoprecipitation by anti-FLAG antibody

HA-CFL1 (WT) (from UniProt P23528 1-166)
binding: binds
